These are yes or no findings as the source states them, for the method shown. Binding seen in cells or lysates may run through a third protein. Some binding calls cover weakened binding; strength is not graded here.
Tests used:
[1] = molecular target: RUNX1 (human (endogenous in RS4;11, SEM and CCRF-CEM)) (UniProt Q01196); experiment: co-IP; 500 ug RS4;11 or SEM (t(4;11)) nuclear extract in 20 mM Tris-HCl pH 7.5, 20% glycerol, 300 mM KCl, 5 mM EDTA; overnight at 4°C with anti-AF4-N, anti-RUNX1 or anti-MLL-C (rabbit IgG as control); protein A and G Dynabeads; wash at 150 mM KCl; Western blot
[2] = molecular target: MLL-C (human (endogenous in RS4;11, SEM and CCRF-CEM)) (UniProt Q03164); experiment: as above

Amino acid sequences for entries named in this document (tags omitted). Residues count along the entry.
UniProt Q01196: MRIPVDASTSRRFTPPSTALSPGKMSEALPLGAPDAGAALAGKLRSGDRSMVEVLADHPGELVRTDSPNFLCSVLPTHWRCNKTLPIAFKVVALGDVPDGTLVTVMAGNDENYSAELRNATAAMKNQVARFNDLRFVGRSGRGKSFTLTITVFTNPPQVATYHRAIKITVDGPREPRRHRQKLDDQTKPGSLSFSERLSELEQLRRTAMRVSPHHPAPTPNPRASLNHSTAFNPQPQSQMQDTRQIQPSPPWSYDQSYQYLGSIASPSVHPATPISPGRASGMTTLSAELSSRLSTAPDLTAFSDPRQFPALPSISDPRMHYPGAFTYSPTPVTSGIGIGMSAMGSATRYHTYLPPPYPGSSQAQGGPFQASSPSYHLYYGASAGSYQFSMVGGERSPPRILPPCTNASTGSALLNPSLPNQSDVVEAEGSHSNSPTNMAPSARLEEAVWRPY
UniProt Q03164, residues 2719-3969: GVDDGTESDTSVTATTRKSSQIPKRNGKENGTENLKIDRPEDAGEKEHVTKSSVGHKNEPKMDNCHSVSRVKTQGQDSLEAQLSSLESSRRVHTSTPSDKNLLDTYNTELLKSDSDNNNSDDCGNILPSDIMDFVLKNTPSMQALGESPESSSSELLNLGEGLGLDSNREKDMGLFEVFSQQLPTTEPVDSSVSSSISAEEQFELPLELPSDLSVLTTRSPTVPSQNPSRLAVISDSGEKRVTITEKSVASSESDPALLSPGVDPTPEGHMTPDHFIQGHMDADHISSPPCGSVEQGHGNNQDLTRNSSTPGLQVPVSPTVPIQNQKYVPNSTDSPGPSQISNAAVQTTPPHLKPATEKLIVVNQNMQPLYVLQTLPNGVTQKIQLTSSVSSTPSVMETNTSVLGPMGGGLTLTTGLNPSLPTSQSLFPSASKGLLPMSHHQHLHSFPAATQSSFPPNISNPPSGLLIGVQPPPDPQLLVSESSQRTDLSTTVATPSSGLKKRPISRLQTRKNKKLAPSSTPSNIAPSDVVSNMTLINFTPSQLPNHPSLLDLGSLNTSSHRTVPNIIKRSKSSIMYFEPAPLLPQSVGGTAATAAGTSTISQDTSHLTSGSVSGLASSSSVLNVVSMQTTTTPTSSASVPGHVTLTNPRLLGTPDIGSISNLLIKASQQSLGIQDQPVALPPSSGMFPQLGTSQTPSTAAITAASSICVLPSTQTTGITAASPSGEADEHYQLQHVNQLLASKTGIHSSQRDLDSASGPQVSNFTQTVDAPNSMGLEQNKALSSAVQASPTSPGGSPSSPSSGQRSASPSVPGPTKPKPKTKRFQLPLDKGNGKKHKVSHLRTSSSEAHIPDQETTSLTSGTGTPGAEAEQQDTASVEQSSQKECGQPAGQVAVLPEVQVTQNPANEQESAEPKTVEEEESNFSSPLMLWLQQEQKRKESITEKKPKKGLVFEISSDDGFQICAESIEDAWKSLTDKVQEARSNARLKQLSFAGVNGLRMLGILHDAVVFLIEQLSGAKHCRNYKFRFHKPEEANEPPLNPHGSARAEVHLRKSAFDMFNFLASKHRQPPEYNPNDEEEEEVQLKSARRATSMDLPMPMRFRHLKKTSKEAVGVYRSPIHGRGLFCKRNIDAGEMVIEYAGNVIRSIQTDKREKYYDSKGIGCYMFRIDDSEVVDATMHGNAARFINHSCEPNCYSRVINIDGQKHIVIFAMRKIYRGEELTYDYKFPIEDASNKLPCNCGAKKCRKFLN

B1: wild-type AF4 (protein, UniProt P51825 1-1210)
chain: MAAQSSLYNDDRNLLRIREKERRNQEAHQEKEAFPEKIPLFGEPYKTAKGDELSSRIQNMLGNYEEVKEFLSTKSHTHRLDASENRLGKPKYPLIPDKGSSIPSSSFHTSVHHQSIHTPASGPLSVGNISHNPKMAQPRTEPMPSLHAKSCGPPDSQHLTQDRLGQEGFGSSHHKKGDRRADGDHCASVTDSAPERELSPLISLPSPVPPLSPIHSNQQTLPRTQGSSKVHGSSNNSKGYCPAKSPKDLAVKVHDKETPQDSLVAPAQPPSQTFPPPSLPSKSVAMQQKPTAYVRPMDGQDQAPSESPELKPLPEDYRQQTFEKTDLKVPAKAKLTKLKMPSQSVEQTYSNEVHCVEEILKEMTHSWPPPLTAIHTPSTAEPSKFPFPTKDSQHVSSVTQNQKQYDTSSKTHSNSQQGTSSMLEDDLQLSDSEDSDSEQTPEKPPSSSAPPSAPQSLPEPVASAHSSSAESESTSDSDSSSDSESESSSSDSEENEPLETPAPEPEPPTTNKWQLDNWLTKVSQPAAPPEGPRSTEPPRRHPESKGSSDSATSQEHSESKDPPPKSSSKAPRAPPEAPHPGKRSCQKSPAQQEPPQRQTVGTKQPKKPVKASARAGSRTSLQGEREPGLLPYGSRDQTSKDKPKVKTKGRPRAAASNEPKPAVPPSSEKKKHKSSLPAPSKALSGPEPAKDNVEDRTPEHFALVPLTESQGPPHSGSGSRTSGCRQAVVVQEDSRKDRLPLPLRDTKLLSPLRDTPPPQSLMVKITLDLLSRIPQPPGKGSRQRKAEDKQPPAGKKHSSEKRSSDSSSKLAKKRKGEAERDCDNKKIRLEKEIKSQSSSSSSSHKESSKTKPSRPSSQSSKKEMLPPPPVSSSSQKPAKPALKRSRREADTCGQDPPKSASSTKSNHKDSSIPKQRRVEGKGSRSSSEHKGSSGDTANPFPVPSLPNGNSKPGKPQVKFDKQQADLHMREAKKMKQKAELMTDRVGKAFKYLEAVLSFIECGIATESESQSSKSAYSVYSETVDLIKFIMSLKSFSDATAPTQEKIFAVLCMRCQSILNMAMFRCKKDIAIKYSRTLNKHFESSSKVAQAPSPCIASTGTPSPLSPMPSPASSVGSQSSAGSVGSSGVAATISTPVTIQNMTSSYVTITSHVLTAFDLWEQAEALTRKNKEFFARLSTNVCTLALNSSLVDLVHYTRQGFQQLQELTKTP
B1 was tested, and the binding [1] was “binds” and the binding [2] was “binds”.
